In all, about 300,000 compounds went through this assay and about 5,400 (1.8%) were called active. This list was built around the results that the source calls inconclusive (neither active nor inactive); the mix of calls is not that of the screen. Calls come from the whole dose curve; tested in HEK293 cells. Potencies of inconclusive entries are doubtful fits and often do not repeat.
Assay: qHTS for inhibitors of binding or entry into cells for Marburg Virus
Details: Marburg virus pseudotyped entry inhibition, cell reporter; series mostly up to 37.8 µM
Potency is the fitted concentration of half-maximal effect.

| Structure (SMILES) | Potency |
| --- | --- |
| COn1c(=O)c(-c2cccs2)[n+]([O-])c2ccccc21 | inconclusive: 6.31 µM [activator, single point] |
| Cc1nnc(N2CCOCC2)c2ccccc12 | inconclusive: 14.1 µM [activator, single point] |
| CCOc1ccc(N(CC(=O)NC2CCCCC2)C(=O)CCC(=O)Nc2nc(C)cs2)cc1 | inconclusive: 7.94 µM [inhibitor, partial curve, poor fit] |
| Cc1ccc(-c2nc(N3CCOCC3)sc2C(=O)N2CCCCC2)cc1 | inactive |
| COc1ccc(/C=C(/C#N)S(=O)(=O)c2ccc(C)cc2)cc1 | inactive |
| CCOc1ccc(NC(=O)CN(C)C(=O)c2cc(-c3ccncc3)nc3ccccc23)cc1OCC | inconclusive: 12.6 µM [inhibitor, single point] |
| Nc1nc(Nc2cccc(Cl)c2)nc(NCc2ccco2)c1[N+](=O)[O-] | active: 5.62 µM |
| Cc1ccc(C)c(C(=O)NCCN(C)C)c1 | inactive |
| CCc1nn(CC(=O)NCCCN(CC)CC)c(=O)c2cc3sc(C)cc3n12 | inconclusive: 35.5 µM [inhibitor, single point] |
| CCNC(=S)N(CCc1c(C)[nH]c2ccc(C)cc12)Cc1ccco1 | inconclusive: 4.61 µM [inhibitor, partial curve, poor fit] |
| COCCC(=O)N1CCCC(C(=O)c2ccc(Oc3ccccc3)cc2)C1 (stereo not drawn) | inconclusive: 12.6 µM [inhibitor, single point] |
| Cc1cc(C(=O)N/N=C/c2cccnc2)cs1 | inconclusive: 2.51 µM [activator, partial curve, poor fit] |
| COc1cc(/C=C/C(=O)Nc2ccncc2)cc(OC)c1OC | inconclusive: 5.62 µM [activator, single point] |
| CC(C)(C)NC(=O)CSc1nc2ccc(NC(=O)CSc3nnc(N)s3)cc2s1 | inconclusive: 11.6 µM [inhibitor, partial curve] |
| O=C(CCN1C(=O)/C(=C/c2cccs2)SC1=S)N1CCCCC1 | inconclusive: 12.6 µM [inhibitor, partial curve, poor fit] |
| CCCNC(=O)c1cccc(COCC(F)(F)F)c1 | inconclusive: 29.1 µM [activator, single point] |
| COc1ccc(NC(=O)c2cc3c(s2)-c2c(C)cccc2OC3)c(OC)c1 | inactive |
| CC(=O)Nc1cccc(CP(=O)(c2ccccc2)c2ccccc2)c1 | inconclusive: 35.5 µM [activator, single point] |
| COc1ccccc1NS(=O)(=O)c1cccc(NC(=O)c2sc3ccccc3c2Cl)c1 | inconclusive: 35.5 µM [inhibitor, single point] |
| COc1ccc([C@]23Cc4cc(C#N)ccc4[C@H](O2)c2c(cc(C)n(Cc4ccccc4)c2=O)O3)cc1 | inconclusive: 0.0266 µM [inhibitor, full curve, poor fit] |
| Cc1ccc(CNC(=O)CN2CCC(C(N)=O)CC2)cc1 | inactive |
| COc1ccc(C(=O)NC(=S)Nc2ccc3oc(=O)ccc3c2)cc1 | inactive |

Three entries from above, tab-delimited.
Structure (SMILES)	Potency
COc1ccc([C@]23Cc4cc(C#N)ccc4[C@H](O2)c2c(cc(C)n(Cc4ccccc4)c2=O)O3)cc1	inconclusive: 0.0266 µM [inhibitor, full curve, poor fit]
Cc1ccc(CNC(=O)CN2CCC(C(N)=O)CC2)cc1	inactive
COc1ccc(C(=O)NC(=S)Nc2ccc3oc(=O)ccc3c2)cc1	inactive

Later entries:

| Structure (SMILES) | Potency |
| --- | --- |
| Cc1nc(-c2cccc(S(=O)(=O)N3CCCCC3)c2)cs1 | inconclusive: 29.1 µM [inhibitor, single point] |
| NS(=O)(=O)c1ccc(NC(=O)COC(=O)c2ccc(S(=O)(=O)N3CCOCC3)cc2)cc1 | inactive |
| Cc1ccccc1OCC(=O)N/N=C/c1cccc2cccnc12 | inconclusive: 11.2 µM [inhibitor, partial curve] |
| COc1ccc(Br)cc1S(=O)(=O)N(CC(=O)N1CCN(C)CC1)c1ccccc1 | inactive |
| COc1cccc(/C=N/NC(=O)c2cc3c(OC)c(OC)ccc3[nH]2)c1OC | inconclusive: 1.46 µM [inhibitor, partial curve, poor fit] |
| COc1ccc(CCNC(=O)c2cc3c(-c4ccccc4F)nn(C)c3s2)c(OC)c1 | inconclusive: 35.5 µM [inhibitor, single point] |
| CCCOc1ccc(N2C(=O)CC(N(CCc3ccc(S(N)(=O)=O)cc3)C(C)=O)C2=O)cc1 (stereo not drawn) | inconclusive: 0.13 µM [inhibitor, partial curve, poor fit] |
| O=C(NC(=S)NCCCN1CCOCC1)c1ccc(Br)cc1 | inactive |
| CSc1nc2ccccc2c(=O)n1C1CCCCC1 | inconclusive: 12.6 µM [activator, partial curve] |
| Cc1ccccc1-n1c(-c2ccoc2)nc2ccccc2c1=O | inactive |
| Cc1ccc(C)c(OCCC(=O)N2CCN(S(=O)(=O)c3cc(C)ccc3C)CC2)c1 | inconclusive: 8.91 µM [inhibitor, partial curve, poor fit] |
| CCCc1nc2ccc(NC(C)=O)cc2c(=O)n1Cc1cccc(Cl)c1 | inconclusive: 20 µM [inhibitor, single point] |
| O=C(NC1CCCCC1NC(=O)c1cccs1)c1cccs1 (stereo not drawn) | inconclusive: 35.5 µM [activator, single point] |
| Cc1cc(C)cc(C(=O)NC(=S)Nc2ccc(-c3cc4ccccc4oc3=O)cc2)c1 | inconclusive: 5.01 µM [inhibitor, partial curve, poor fit] |
| COc1ccc2cc(Br)ccc2c1CC(=O)NCCCN1CCOCC1 | inconclusive: 10 µM [inhibitor, partial curve] |
| CSc1ccccc1OCc1cc(C(=O)N2CCNC(=O)C2)no1 | inactive |
| Cc1cc(C)c(C#N)c(SCC(=O)Nc2nonc2N)n1 | inactive |
| N/C(=N\OC(=O)CCCCCN1C(=O)c2ccccc2C1=O)c1ccccc1 | inconclusive: 29.1 µM [activator, single point] |
| O=C(Nc1ccc(-c2cn3ccsc3n2)cc1)C1COc2ccccc2O1 (stereo not drawn) | inconclusive: 8.91 µM [inhibitor, partial curve, poor fit] |
| COc1ccc(C(=O)/C=C/c2cn(CC(O)CN3CCN(C)CC3)c3ccccc23)cc1OC (stereo not drawn) | inconclusive: 11.2 µM [inhibitor, partial curve, poor fit] |
| CCOC(=O)N1CCC(=NNC(=O)c2ccc(O)cc2)CC1 | inconclusive: 35.5 µM [inhibitor, single point] |

— PubChem BioAssay AID540276 (National Center for Advancing Translational Sciences (NCATS), 2011)
